Results are given in words; binding and its absence hold for the method and conditions named. Binding seen in cells or lysates may run through a third protein. Some results given as binding are weak or reduced against the parent protein; the word gives no strength. Values belong to the substance of their own block, whether it stands above or below them.
Legend:
[1] = target: LRP1, endogenous in differentiated AD-NSC cultures (human (endogenous in iPSC-derived AD-NSC cultures)) (UniProt Q07954); experiment: co-IP; differentiated AD-NSC cultures incubated with 1 μM Aβ42 and various concentrations of purified DKK1-Flag or DKK3-Flag for 30 min; total extract precipitated with anti-LRP1 antibody; immunoblot; only the binder purified
[2] = target: soluble LRP1 (sLRP1), endogenous in mouse plasma (mouse (endogenous in 5×FAD plasma)) (UniProt Q91ZX7); experiment: co-IP + ELISA; plasma of 5×FAD mice treated with vehicle or SJ-300; anti-LRP1 antibody and Protein G agarose overnight at 4°C; bound DKK3 by ELISA
[3] = target: LRP6, endogenous in human brain (human (endogenous in AD brain)) (UniProt O75581); experiment: co-IP; human AD brain lysates, IP with antibodies to DKK1, DKK3 and LRP1, IgG as negative control, immunoblot

The chains behind the UniProt entries cited, without tags or fusion partners. Residues count along the entry.
UniProt Q07954, residues 20-4544: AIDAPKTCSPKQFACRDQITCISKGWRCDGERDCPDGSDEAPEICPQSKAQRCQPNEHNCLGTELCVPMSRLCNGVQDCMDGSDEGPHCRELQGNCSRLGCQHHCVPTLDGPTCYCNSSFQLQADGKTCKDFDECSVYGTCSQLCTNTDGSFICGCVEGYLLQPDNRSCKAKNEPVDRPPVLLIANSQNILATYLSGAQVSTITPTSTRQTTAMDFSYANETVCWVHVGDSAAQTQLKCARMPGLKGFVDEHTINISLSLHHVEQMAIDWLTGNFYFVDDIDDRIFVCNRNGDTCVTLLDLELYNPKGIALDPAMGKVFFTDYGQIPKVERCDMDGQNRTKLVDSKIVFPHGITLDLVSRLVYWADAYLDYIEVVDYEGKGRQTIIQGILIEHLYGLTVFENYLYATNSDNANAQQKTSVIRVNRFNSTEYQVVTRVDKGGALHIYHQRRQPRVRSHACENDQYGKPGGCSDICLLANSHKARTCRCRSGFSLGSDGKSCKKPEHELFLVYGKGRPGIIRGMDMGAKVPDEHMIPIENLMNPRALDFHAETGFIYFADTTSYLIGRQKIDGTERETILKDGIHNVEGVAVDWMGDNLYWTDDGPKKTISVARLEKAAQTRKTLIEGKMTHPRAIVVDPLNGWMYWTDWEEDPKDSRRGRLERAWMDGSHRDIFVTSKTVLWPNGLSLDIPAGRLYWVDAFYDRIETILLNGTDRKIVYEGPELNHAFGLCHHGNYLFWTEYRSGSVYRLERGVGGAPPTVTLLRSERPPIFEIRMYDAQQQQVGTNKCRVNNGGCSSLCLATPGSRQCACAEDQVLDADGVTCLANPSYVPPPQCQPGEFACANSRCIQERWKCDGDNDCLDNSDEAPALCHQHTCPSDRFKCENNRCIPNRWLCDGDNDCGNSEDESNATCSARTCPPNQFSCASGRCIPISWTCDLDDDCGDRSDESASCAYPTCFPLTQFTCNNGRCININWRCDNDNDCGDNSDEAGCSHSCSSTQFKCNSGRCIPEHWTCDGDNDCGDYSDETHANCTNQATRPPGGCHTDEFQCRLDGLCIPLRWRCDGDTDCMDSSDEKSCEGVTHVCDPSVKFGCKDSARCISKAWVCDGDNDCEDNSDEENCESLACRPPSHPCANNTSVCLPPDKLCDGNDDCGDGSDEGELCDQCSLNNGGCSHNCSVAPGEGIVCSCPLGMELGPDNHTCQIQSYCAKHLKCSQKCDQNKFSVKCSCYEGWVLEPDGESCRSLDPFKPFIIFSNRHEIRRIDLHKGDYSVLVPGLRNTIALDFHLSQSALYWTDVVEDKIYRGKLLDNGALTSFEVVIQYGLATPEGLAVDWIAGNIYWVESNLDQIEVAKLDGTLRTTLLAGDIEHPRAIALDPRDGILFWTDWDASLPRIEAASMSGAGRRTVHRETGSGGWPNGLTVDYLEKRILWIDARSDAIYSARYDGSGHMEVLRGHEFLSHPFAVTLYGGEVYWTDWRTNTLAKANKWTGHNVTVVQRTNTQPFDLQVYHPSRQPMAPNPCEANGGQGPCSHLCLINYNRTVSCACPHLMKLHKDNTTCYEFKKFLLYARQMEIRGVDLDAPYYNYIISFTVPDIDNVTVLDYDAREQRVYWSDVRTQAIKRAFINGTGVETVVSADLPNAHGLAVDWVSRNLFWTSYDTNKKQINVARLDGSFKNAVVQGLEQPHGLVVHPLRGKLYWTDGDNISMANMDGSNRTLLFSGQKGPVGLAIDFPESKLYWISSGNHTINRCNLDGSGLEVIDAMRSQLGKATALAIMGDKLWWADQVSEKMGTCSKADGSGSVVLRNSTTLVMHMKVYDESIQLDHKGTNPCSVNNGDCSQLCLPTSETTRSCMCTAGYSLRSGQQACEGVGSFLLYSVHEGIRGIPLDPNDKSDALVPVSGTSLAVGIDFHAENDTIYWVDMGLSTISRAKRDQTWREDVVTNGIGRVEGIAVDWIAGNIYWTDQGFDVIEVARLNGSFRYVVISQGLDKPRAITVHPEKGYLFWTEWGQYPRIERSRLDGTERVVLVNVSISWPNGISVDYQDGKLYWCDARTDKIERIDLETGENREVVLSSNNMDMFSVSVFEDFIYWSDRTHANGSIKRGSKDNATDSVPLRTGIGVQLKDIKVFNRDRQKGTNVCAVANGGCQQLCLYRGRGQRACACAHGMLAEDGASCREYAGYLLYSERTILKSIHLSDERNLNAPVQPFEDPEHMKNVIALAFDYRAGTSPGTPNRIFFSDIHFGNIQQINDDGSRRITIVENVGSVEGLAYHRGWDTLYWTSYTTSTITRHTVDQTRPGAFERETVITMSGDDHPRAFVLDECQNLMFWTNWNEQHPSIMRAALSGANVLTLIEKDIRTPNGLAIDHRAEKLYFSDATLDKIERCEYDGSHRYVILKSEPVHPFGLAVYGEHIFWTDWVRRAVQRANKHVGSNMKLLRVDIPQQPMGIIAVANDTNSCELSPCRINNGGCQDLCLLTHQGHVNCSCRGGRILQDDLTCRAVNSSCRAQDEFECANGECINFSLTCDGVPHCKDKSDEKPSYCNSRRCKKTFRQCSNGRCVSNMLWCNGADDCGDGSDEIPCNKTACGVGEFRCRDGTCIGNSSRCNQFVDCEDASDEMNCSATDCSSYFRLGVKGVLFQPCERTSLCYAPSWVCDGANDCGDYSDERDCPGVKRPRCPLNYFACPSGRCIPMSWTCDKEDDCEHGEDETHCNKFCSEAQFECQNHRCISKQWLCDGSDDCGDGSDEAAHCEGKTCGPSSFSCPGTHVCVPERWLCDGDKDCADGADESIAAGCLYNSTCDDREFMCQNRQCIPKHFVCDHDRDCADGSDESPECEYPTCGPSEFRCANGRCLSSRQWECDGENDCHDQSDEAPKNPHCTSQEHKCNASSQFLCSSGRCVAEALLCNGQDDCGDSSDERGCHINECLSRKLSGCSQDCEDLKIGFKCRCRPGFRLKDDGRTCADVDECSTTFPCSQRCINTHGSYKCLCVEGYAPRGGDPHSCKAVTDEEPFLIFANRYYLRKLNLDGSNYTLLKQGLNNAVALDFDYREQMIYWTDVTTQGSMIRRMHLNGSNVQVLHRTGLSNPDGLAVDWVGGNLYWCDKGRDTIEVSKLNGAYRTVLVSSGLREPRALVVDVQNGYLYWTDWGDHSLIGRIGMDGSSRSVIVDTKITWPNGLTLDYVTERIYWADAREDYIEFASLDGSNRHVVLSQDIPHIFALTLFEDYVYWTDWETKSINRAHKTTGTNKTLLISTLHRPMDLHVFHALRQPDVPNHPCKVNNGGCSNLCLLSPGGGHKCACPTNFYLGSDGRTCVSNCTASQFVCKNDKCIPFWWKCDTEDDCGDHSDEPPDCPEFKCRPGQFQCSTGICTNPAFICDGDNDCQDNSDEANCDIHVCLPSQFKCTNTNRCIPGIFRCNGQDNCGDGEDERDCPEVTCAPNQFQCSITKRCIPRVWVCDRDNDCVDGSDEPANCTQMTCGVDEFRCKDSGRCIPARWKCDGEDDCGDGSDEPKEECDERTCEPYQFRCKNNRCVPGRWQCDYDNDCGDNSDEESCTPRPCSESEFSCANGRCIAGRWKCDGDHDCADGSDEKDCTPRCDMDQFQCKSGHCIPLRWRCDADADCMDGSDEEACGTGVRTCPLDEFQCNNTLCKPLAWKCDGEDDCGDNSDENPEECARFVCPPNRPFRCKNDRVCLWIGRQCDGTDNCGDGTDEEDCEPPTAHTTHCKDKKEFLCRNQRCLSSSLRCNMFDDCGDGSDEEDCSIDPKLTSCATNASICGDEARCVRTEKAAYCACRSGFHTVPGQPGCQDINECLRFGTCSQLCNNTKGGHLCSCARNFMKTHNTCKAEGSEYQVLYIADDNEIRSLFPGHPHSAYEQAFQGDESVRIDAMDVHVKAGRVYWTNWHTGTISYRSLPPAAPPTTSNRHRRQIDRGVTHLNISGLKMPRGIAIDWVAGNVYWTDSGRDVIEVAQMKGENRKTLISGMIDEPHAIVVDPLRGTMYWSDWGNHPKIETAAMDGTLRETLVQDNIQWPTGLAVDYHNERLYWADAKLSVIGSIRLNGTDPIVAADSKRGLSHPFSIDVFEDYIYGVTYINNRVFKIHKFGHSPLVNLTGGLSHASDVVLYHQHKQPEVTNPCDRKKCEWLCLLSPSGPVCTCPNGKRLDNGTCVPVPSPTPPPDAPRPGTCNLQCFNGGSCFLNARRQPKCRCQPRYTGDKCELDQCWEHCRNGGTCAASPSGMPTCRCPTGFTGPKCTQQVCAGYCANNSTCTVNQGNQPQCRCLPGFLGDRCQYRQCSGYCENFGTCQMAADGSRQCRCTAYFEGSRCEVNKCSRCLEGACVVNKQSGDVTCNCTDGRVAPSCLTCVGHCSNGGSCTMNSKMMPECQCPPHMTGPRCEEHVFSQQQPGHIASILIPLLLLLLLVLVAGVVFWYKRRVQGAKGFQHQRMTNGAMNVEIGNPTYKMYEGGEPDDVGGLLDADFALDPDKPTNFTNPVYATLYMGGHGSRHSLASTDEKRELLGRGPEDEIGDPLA
UniProt Q9UBP4, residues 22-350: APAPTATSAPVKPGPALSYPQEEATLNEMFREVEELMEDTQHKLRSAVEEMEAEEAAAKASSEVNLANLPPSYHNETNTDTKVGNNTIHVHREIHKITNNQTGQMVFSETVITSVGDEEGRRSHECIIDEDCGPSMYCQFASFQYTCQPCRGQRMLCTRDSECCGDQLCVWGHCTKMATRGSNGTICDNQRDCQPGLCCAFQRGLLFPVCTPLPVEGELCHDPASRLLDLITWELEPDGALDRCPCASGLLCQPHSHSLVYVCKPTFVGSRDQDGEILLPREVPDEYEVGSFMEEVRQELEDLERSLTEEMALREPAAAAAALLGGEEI
UniProt Q9QUN9, residues 23-349: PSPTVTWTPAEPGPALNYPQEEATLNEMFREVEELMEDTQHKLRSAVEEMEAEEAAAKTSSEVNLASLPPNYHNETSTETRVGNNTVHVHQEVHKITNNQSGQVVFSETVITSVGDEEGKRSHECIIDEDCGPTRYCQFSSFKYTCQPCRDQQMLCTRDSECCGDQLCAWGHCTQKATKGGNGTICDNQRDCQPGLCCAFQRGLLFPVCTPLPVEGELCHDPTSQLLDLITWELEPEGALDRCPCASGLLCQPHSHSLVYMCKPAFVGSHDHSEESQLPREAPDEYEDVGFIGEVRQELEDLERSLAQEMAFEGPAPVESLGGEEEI

binding [1]: binds
Substance: DKK3-Flag (from UniProt Q9UBP4 22-350) (ligand)

binding [2]: binds
Substance: DKK3, endogenous in mouse plasma (from UniProt Q9QUN9 23-349) (ligand)

binding [3]: no binding
Substance: DKK3, endogenous in human brain (from UniProt Q9UBP4 22-350) (ligand)
